Test results reported in the supplement of paper PMC12823440, “Inhibitors supercharge kinase turnover through native proteolytic circuits” (Nature, 2025).
The other results are listed elsewhere or left out. Hit calls seldom repeat between salt and free forms of one compound.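 In K562 cells expressing nanoluciferase-fused kinases, luminescence was recorded at 4 h intervals between 2 and 18 h, normalized as percent of control with DMSO at 100% and a positive control at 0%. A significant (2 sigma) signal drop marks a time point as decreased. The authors' rule for a hit is not shown and takes in more than the number of time points.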

Chains of the proteins cited; added tags and fusions are not shown.
UniProt P11362, whole entry, looked up: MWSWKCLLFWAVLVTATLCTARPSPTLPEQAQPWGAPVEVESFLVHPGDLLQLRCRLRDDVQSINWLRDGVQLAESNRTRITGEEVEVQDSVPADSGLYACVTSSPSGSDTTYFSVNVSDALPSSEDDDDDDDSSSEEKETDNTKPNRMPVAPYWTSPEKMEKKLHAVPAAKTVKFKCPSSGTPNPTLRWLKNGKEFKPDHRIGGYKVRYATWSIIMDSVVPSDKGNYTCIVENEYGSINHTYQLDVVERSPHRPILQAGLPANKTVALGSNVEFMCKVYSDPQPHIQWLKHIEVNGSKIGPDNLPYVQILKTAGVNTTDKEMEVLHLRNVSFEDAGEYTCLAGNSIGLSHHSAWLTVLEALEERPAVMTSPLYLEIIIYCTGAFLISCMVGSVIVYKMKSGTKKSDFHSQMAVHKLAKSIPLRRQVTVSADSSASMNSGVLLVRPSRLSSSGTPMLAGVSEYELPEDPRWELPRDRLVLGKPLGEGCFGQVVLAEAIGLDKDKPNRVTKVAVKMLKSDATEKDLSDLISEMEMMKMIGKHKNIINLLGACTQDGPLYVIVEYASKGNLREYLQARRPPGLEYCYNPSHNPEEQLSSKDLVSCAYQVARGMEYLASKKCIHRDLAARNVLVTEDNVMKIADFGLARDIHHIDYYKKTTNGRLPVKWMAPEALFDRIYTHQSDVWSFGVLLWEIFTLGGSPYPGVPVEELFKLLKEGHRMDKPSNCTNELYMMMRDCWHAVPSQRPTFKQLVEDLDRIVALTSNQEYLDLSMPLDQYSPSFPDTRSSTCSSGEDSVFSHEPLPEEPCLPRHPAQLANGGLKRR
UniProt P21802, whole entry, looked up: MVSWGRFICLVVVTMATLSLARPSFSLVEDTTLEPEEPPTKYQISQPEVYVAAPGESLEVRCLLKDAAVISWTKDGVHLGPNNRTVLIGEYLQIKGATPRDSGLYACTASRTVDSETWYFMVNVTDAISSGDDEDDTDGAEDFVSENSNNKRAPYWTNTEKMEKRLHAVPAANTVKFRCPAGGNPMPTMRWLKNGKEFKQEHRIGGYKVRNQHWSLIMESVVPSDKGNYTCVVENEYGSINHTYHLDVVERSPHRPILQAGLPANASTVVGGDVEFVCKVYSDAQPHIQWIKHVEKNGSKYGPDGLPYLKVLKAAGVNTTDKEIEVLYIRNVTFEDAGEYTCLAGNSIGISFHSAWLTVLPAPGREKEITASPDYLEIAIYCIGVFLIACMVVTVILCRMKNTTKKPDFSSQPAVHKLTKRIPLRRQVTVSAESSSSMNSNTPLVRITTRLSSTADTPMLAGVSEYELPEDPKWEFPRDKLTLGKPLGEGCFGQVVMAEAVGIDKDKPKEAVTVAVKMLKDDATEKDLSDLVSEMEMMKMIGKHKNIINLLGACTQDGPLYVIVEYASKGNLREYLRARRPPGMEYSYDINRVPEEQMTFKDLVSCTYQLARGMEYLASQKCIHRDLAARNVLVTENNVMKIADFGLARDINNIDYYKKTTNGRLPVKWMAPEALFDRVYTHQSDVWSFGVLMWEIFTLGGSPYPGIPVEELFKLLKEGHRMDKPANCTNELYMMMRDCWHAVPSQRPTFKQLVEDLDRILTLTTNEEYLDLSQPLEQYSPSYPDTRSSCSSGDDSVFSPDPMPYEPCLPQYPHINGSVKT

biological target: FGFR1 (UniProt P11362); test: kinase-Nluc reporter destabilization hit call (1 = scored as downregulated) (binary); higher = compound decreases kinase abundance; settings: K562; 2-18 h

kinase-Nluc reporter destabilization hit call, inactive:
COc1c(O)cc(O)c2c(=O)cc(-c3ccccc3)oc12 [Wogonin] (10 µM) 0
O=C(NC[C@H](O)CO)c1ccncc1Nc1ccc(I)cc1F [Pimasertib] (10 µM) 0
N#Cc1cnc(Nc2cc(NC[C@H]3CNCCO3)c(C(F)(F)F)cn2)cn1 (10 µM) 0
CCNC(=O)Nc1ccc(-c2nc3c(c(N4CCOC[C@@H]4C)n2)CCN(C2COC2)C3)cc1 (2.5 µM) 0
COc1cc2ncnc(Nc3cc(Br)c(O)c(Br)c3)c2cc1OC (2.5 µM) 0
Nc1ccc(-c2nc3ccc(-c4nc5ccc(N)cc5[nH]4)cc3[nH]2)cc1 (10 µM) 0
CCCCC(=O)OCC(=O)[C@]1(O)Cc2c(O)c3c(c(O)c2[C@@H](O[C@H]2C[C@H](NC(=O)C(F)(F)F)[C@H](O)[C@H](C)O2)C1)C(=O)c1c(OC)cccc1C3=O [Valrubicin] (10 µM) 0
CCOC(=O)c1c(Nc2ccccc2Cl)oc(/C=C2\C=Nc3ncccc32)c1O (10 µM) 0
Nc1[nH]nc2nnc(-c3c(-c4ccccc4)nn4ccccc34)cc12 (10 µM) 0
COc1cc2nc(NC3CC3)nc(NC3CCN(C(C)C)CC3)c2cc1OC (10 µM) 0
S=C(NCc1ccc2c(c1)OCO2)N1CCN(c2ncnc3c2oc2ccccc23)CC1 [Amuvatinib] (2.5 µM) 0
CC(=O)O[C@@H]1[C@@H](OC(C)=O)[C@@H](O)[C@H](Oc2c(-c3ccc(O)cc3)oc3cc(O)cc(O)c3c2=O)O[C@H]1C (10 µM) 0
CC1=CC(=O)C(C(C)C)=C/C1=N/OC(=O)c1ccccc1C [Poloxin] (2.5 µM) 0
CO[C@@H]1[C@H](N(C)C(=O)c2ccccc2)C[C@H]2O[C@]1(C)n1c3ccccc3c3c4c(c5c6ccccc6n2c5c31)C(=O)NC4 [Midostaurin] (2.5 µM) 0
Fc1ccc(Cl)cc1-c1nc(Nc2ccncc2)c2nccnc2n1 (10 µM) 0
CN1CCC(Nc2ccc(C(=O)Nc3cc(-c4ccc5c(c4)OCO5)[nH]n3)cc2)CC1 (10 µM) 0
CN1CCC(Nc2nc(Nc3ccc(Oc4ccccc4)cc3)c3c(=O)[nH]cc(Br)c3n2)CC1 (2.5 µM) 0
O=C(COc1ccc(Cl)cc1)NC1CCC(NC(=O)COc2ccc(Cl)cc2)CC1 (stereo not drawn) [ISRIB (trans-isomer)] (10 µM) 0
Cc1ccc(C2CC(=O)NC(SCC(=O)Nc3nccs3)=C2C#N)cc1 (stereo not given) [Necrostatin-34] (10 µM) 0
CCCCNc1ncc(C(=O)NCc2ccc(-n3ccnc3)cc2)c(NC2CCC(O)CC2)n1 (stereo not given) (10 µM) 0
O=C1NC(=O)C(Cc2c[nH]c3c(Cl)cccc23)N1 (stereo not given) [Necroptosis-IN-1] (10 µM) 0
O=C1C=CC2=C3c4cc(O)c(O)cc4CC3(O)COC2=C1O (stereo not given) [Hematein] (10 µM) 0
NC(=O)c1cnc(N[C@@H]2CCCC[C@@H]2N)nc1Nc1cccc(-n2nccn2)c1 (2.5 µM) 0
COc1cc2nc(-c3cc(F)ccc3O)nc(N[C@@H]3CNC[C@H]3C(C)(C)O)c2cc1OC (2.5 µM) 0
CN1CCN(Cc2ccc(-c3cn(C4CCC(O)CC4)c4nc(NCCC5CC5)ncc34)cc2)CC1 (stereo not given) (2.5 µM) 0
O=S(=O)(c1ccc(O)cc1O)N1Cc2cc(O)cc(O)c2C1 (10 µM) 0

biological target: FGFR2 (UniProt P21802); test: as above; settings: K562; 2-18 h

kinase-Nluc reporter destabilization hit call, inactive:
CC(C)Cn1ncc2cc(Oc3ccc(F)cc3F)c(C(=O)NCCN(C)C)cc21 [p38α inhibitor 1] (10 µM) 0
CNc1cc2c(Nc3cccc(Br)c3)ncnc2cn1 (10 µM) 0
CN1C(=O)[C@@H](NC(=O)c2cc(Cc3ccccc3)on2)COc2ccccc21 (10 µM) 0
CC(C1CC1)n1cnc2c(NCc3cccc(C(F)(F)F)c3)nc(NCCN(C)C)nc21 (stereo not given) (10 µM) 0
Cc1n[nH]c2ncc(C(=O)N3CCC[C@H]3c3ccc(Cl)cc3)cc12 (10 µM) 0
COc1ccc(Br)c(C=O)c1O [6-Bromo-2-hydroxy-3-methoxybenzaldehyde] (10 µM) 0
Oc1ccc(-c2cnc3ccc(NCc4ccco4)nn23)cc1 [IRAK inhibitor 2] (2.5 µM) 0
C[C@H](Nc1cc2c(-c3ccc4c(c3)OCO4)noc2cn1)c1ccccc1 (10 µM) 0
Nc1ccc(C(=O)Nc2cccc(-c3nc(N4CCOCC4)c4oc5ncccc5c4n3)c2)cn1 (10 µM) 0
CCOC(=O)c1c(N2CCc3ccc(OC)cc3C2)oc(C=C2C=Nc3ncccc32)c1O (10 µM) 0
Cc1ncc(-c2cc(F)c(O)c(F)c2)cc1-c1cc(F)c(O)c(F)c1 (10 µM) 0
N=C(NC(=N)N1CCCC1)Nc1ccc(OC(F)(F)F)cc1 (10 µM) 0
CC1(C)CN(C(=O)c2ccc(-c3cccc4nc(NC(=O)C5CC5)nn34)cc2)C1 [Solcitinib] (10 µM) 0
COc1c(O)cc(O)c2c(=O)cc(-c3ccccc3)oc12 [Wogonin] (10 µM) 0
O=C(NC[C@H](O)CO)c1ccncc1Nc1ccc(I)cc1F [Pimasertib] (10 µM) 0
N#Cc1cnc(Nc2cc(NC[C@H]3CNCCO3)c(C(F)(F)F)cn2)cn1 (10 µM) 0
CCNC(=O)Nc1ccc(-c2nc3c(c(N4CCOC[C@@H]4C)n2)CCN(C2COC2)C3)cc1 (2.5 µM) 0
COc1cc2ncnc(Nc3cc(Br)c(O)c(Br)c3)c2cc1OC (2.5 µM) 0
Nc1ccc(-c2nc3ccc(-c4nc5ccc(N)cc5[nH]4)cc3[nH]2)cc1 (10 µM) 0
CCCCC(=O)OCC(=O)[C@]1(O)Cc2c(O)c3c(c(O)c2[C@@H](O[C@H]2C[C@H](NC(=O)C(F)(F)F)[C@H](O)[C@H](C)O2)C1)C(=O)c1c(OC)cccc1C3=O [Valrubicin] (10 µM) 0
CCOC(=O)c1c(Nc2ccccc2Cl)oc(/C=C2\C=Nc3ncccc32)c1O (10 µM) 0
Nc1[nH]nc2nnc(-c3c(-c4ccccc4)nn4ccccc34)cc12 (10 µM) 0
COc1cc2nc(NC3CC3)nc(NC3CCN(C(C)C)CC3)c2cc1OC (10 µM) 0
S=C(NCc1ccc2c(c1)OCO2)N1CCN(c2ncnc3c2oc2ccccc23)CC1 [Amuvatinib] (2.5 µM) 0
CC(=O)O[C@@H]1[C@@H](OC(C)=O)[C@@H](O)[C@H](Oc2c(-c3ccc(O)cc3)oc3cc(O)cc(O)c3c2=O)O[C@H]1C (10 µM) 0
CC1=CC(=O)C(C(C)C)=C/C1=N/OC(=O)c1ccccc1C [Poloxin] (2.5 µM) 0
CO[C@@H]1[C@H](N(C)C(=O)c2ccccc2)C[C@H]2O[C@]1(C)n1c3ccccc3c3c4c(c5c6ccccc6n2c5c31)C(=O)NC4 [Midostaurin] (2.5 µM) 0
Fc1ccc(Cl)cc1-c1nc(Nc2ccncc2)c2nccnc2n1 (10 µM) 0
CN1CCC(Nc2ccc(C(=O)Nc3cc(-c4ccc5c(c4)OCO5)[nH]n3)cc2)CC1 (10 µM) 0
CN1CCC(Nc2nc(Nc3ccc(Oc4ccccc4)cc3)c3c(=O)[nH]cc(Br)c3n2)CC1 (2.5 µM) 0
O=C(COc1ccc(Cl)cc1)NC1CCC(NC(=O)COc2ccc(Cl)cc2)CC1 (stereo not drawn) [ISRIB (trans-isomer)] (10 µM) 0
Cc1ccc(C2CC(=O)NC(SCC(=O)Nc3nccs3)=C2C#N)cc1 (stereo not given) [Necrostatin-34] (10 µM) 0
CCCCNc1ncc(C(=O)NCc2ccc(-n3ccnc3)cc2)c(NC2CCC(O)CC2)n1 (stereo not given) (10 µM) 0
O=C1NC(=O)C(Cc2c[nH]c3c(Cl)cccc23)N1 (stereo not given) [Necroptosis-IN-1] (10 µM) 0
O=C1C=CC2=C3c4cc(O)c(O)cc4CC3(O)COC2=C1O (stereo not given) [Hematein] (10 µM) 0
NC(=O)c1cnc(N[C@@H]2CCCC[C@@H]2N)nc1Nc1cccc(-n2nccn2)c1 (2.5 µM) 0
COc1cc2nc(-c3cc(F)ccc3O)nc(N[C@@H]3CNC[C@H]3C(C)(C)O)c2cc1OC (2.5 µM) 0
CN1CCN(Cc2ccc(-c3cn(C4CCC(O)CC4)c4nc(NCCC5CC5)ncc34)cc2)CC1 (stereo not given) (2.5 µM) 0
O=S(=O)(c1ccc(O)cc1O)N1Cc2cc(O)cc(O)c2C1 (10 µM) 0
